# Results: the supplement of paper PMC8728848
# The list shows a part of the results.
# Assays:
# Assay in all cases: glycan array binding signal (z-score within array); higher = stronger binding
# Settings in all cases: glycan notation: IUPAC condensed, linker removed
# [1] = molecular target: Fuc(a1-2)[GalNAc(a1-3)]Gal(b1-4)GlcNAc(b1-6)GalNAc
# Method in brief: (§1)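 Arrays were curated from the Consortium for Functional Glycomics database, 3228 in total, and kept only where the protein sequence was available. Binding is expressed as a within-array Z-score. This score was averaged across arrays of the same protein sequence at different concentrations or buffers and across linkers, and negative values can be read as non-binding.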
# [2] = molecular target: Fuc(a1-2)[GalNAc(a1-3)]Gal(b1-4)[Fuc(a1-3)]GlcNAc
# Method in brief: as §1
# [3] = molecular target: Fuc(a1-2)[GalNAc(a1-3)]Gal(b1-4)[Fuc(a1-3)]GlcNAc(b1-3)GalNAc
# Method in brief: as §1
# [4] = molecular target: Fuc(a1-2)[GalNAc(a1-4)]Gal(b1-4)GlcNAc
# Method in brief: as §1
# [5] = molecular target: Fuc(a1-2)[GalNAc(b1-3)]Gal
# Method in brief: as §1
# [6] = molecular target: Fuc(a1-3)GlcNAc
# Method in brief: as §1
# [7] = molecular target: Fuc(a1-3)[Gal(b1-4)]Glc6S
# Method in brief: as §1
# [8] = molecular target: Fuc(a1-3)[Gal(b1-4)]GlcNAc
# Method in brief: as §1
# [9] = molecular target: Fuc(a1-3)[Gal(b1-4)]GlcNAc(b1-2)Man
# Method in brief: as §1
# [10] = molecular target: Fuc(a1-3)[Gal(b1-4)]GlcNAc(b1-2)Man(a1-3)[Fuc(a1-3)[Gal(b1-4)]GlcNAc(b1-2)Man(a1-6)]Man(b1-4)GlcNAc(b1-4)GlcNAc
# Method in brief: as §1
# [11] = molecular target: Fuc(a1-3)[Gal(b1-4)]GlcNAc(b1-2)Man(a1-3)[Fuc(a1-3)[Gal(b1-4)]GlcNAc(b1-2)Man(a1-6)]Man(b1-4)GlcNAc(b1-4)[Fuc(a1-6)]GlcNAc
# Method in brief: as §1
# [12] = molecular target: Fuc(a1-3)[Gal(b1-4)]GlcNAc(b1-3)Gal(b1-3)[Fuc(a1-4)]GlcNAc
# Method in brief: as §1
# [13] = molecular target: Fuc(a1-3)[Gal(b1-4)]GlcNAc(b1-3)Gal(b1-4)[Fuc(a1-3)]GlcNAc
# Method in brief: as §1
# [14] = molecular target: Fuc(a1-3)[Gal(b1-4)]GlcNAc(b1-3)Gal(b1-4)[Fuc(a1-3)]GlcNAc(b1-3)Gal(b1-4)[Fuc(a1-3)]GlcNAc
# Method in brief: as §1
# [15] = molecular target: Fuc(a1-3)[Gal(b1-4)]GlcNAc(b1-3)GalNAc
# Method in brief: as §1
# [16] = molecular target: Fuc(a1-3)[Gal(b1-4)]GlcNAc(b1-4)Gal(b1-4)[Fuc(a1-3)]GlcNAc
# Method in brief: as §1
# [17] = molecular target: Fuc(a1-3)[Gal(b1-4)]GlcNAc(b1-4)Gal(b1-4)[Fuc(a1-3)]GlcNAc(b1-4)Gal(b1-4)[Fuc(a1-3)]GlcNAc
# Method in brief: as §1
# [18] = molecular target: Fuc(a1-3)[Gal(b1-4)]GlcNAc(b1-6)GalNAc
# Method in brief: as §1
# [19] = molecular target: Fuc(a1-3)[Gal(b1-4)]GlcNAc(b1-6)[Gal(b1-3)GlcNAc(b1-3)]Gal(b1-4)Glc
# Method in brief: as §1
# [20] = molecular target: Fuc(a1-3)[Gal(b1-4)]GlcNAc6S
# Method in brief: as §1
# [21] = molecular target: Fuc(a1-3)[Gal3S(b1-4)]Glc
# Method in brief: as §1
# [22] = molecular target: Fuc(a1-3)[Gal3S(b1-4)]GlcNAc
# Method in brief: as §1
# [23] = molecular target: Fuc(a1-3)[Gal3S(b1-4)]GlcNAc6S
# Method in brief: as §1
# [24] = molecular target: Fuc(a1-3)[GalNAc(b1-4)]GlcNAc
# Method in brief: as §1
# [25] = molecular target: Fuc(a1-3)[GalNAc(b1-4)]GlcNAc6S
# Method in brief: as §1
# [26] = molecular target: Fuc(a1-4)GlcNAc
# Method in brief: as §1
# [27] = molecular target: Fuc(b1-3)GlcNAc
# Method in brief: as §1
# [28] = molecular target: Gal(a1-2)Gal
# Method in brief: as §1
# [29] = molecular target: Gal(a1-3)Gal
# Method in brief: as §1
# [30] = molecular target: Gal(a1-3)Gal(b1-3)GlcNAc
# Method in brief: as §1
# [31] = molecular target: Gal(a1-3)Gal(b1-3)GlcNAc(b1-2)Man
# Method in brief: as §1
# [32] = molecular target: Gal(a1-3)Gal(b1-3)GlcNAc(b1-2)Man(a1-3)[Gal(a1-3)Gal(b1-3)GlcNAc(b1-2)Man(a1-6)]Man(b1-4)GlcNAc(b1-4)GlcNAc
# Method in brief: as §1
# [33] = molecular target: Gal(a1-3)Gal(b1-3)GlcNAc(b1-3)GalNAc
# Method in brief: as §1
# [34] = molecular target: Gal(a1-3)Gal(b1-3)GlcNAc(b1-6)GalNAc
# Method in brief: as §1
# [35] = molecular target: Gal(a1-3)Gal(b1-3)[Fuc(a1-4)]GlcNAc(b1-2)Man(a1-3)[Gal(a1-3)Gal(b1-3)[Fuc(a1-4)]GlcNAc(b1-2)Man(a1-6)]Man(b1-4)GlcNAc(b1-4)GlcNAc
# Method in brief: as §1
# [36] = molecular target: Gal(a1-3)Gal(b1-4)Glc
# Method in brief: as §1
# [37] = molecular target: Gal(a1-3)Gal(b1-4)GlcNAc
# Method in brief: as §1
binder,measurement,setting,value
"Flo1 (Saccharomyces cerevisiae), P32768 (protein) SGATEACLPAGQRKSGMNINFYQYSLKDSSTYSNAAYMAYGYASKTKLGSVGGQTDISIDYNIPCVSSSGTFPCPQEDSYGNWGCKGMGACSNSQGIAYWSTDLFGFYTTPTNVTLEMTGYFLPPQTGSYTFKFATVDDSAILSVGGATAFNCCAQQQPPITSTNFTIDGIKPWGGSLPPNIEGTVYMYAGYYYPMKVVYSNAVSWGTLPISVTLPDGTTVSDDFEGYVYSFDDDLSQSNCTVPDPSNY",glycan array binding signal (z-score),[1],-0.029
same,glycan array binding signal (z-score),[2],0.058
same,glycan array binding signal (z-score),[3],1.15
same,glycan array binding signal (z-score),[4],0.471
same,glycan array binding signal (z-score),[5],-0.392
same,glycan array binding signal (z-score),[6],-0.377
same,glycan array binding signal (z-score),[7],0.706
same,glycan array binding signal (z-score),[8],-0.054
same,glycan array binding signal (z-score),[9],0.953
same,glycan array binding signal (z-score),[10],-0.236
same,glycan array binding signal (z-score),[11],0.999
same,glycan array binding signal (z-score),[12],0.11
same,glycan array binding signal (z-score),[13],0.46
same,glycan array binding signal (z-score),[14],0.018
same,glycan array binding signal (z-score),[15],0.589
same,glycan array binding signal (z-score),[16],0.775
same,glycan array binding signal (z-score),[17],-0.195
same,glycan array binding signal (z-score),[18],-0.083
same,glycan array binding signal (z-score),[19],-0.753
same,glycan array binding signal (z-score),[20],0.591
same,glycan array binding signal (z-score),[21],0.119
same,glycan array binding signal (z-score),[22],0.026
same,glycan array binding signal (z-score),[23],0.843
same,glycan array binding signal (z-score),[24],0.009
same,glycan array binding signal (z-score),[25],-0.474
same,glycan array binding signal (z-score),[26],-0.417
same,glycan array binding signal (z-score),[27],-0.359
same,glycan array binding signal (z-score),[28],-0.049
same,glycan array binding signal (z-score),[29],0.046
same,glycan array binding signal (z-score),[30],-0.284
same,glycan array binding signal (z-score),[31],-0.273
same,glycan array binding signal (z-score),[32],1.28
same,glycan array binding signal (z-score),[33],1.38
same,glycan array binding signal (z-score),[34],-0.676
same,glycan array binding signal (z-score),[35],0.946
same,glycan array binding signal (z-score),[36],-0.39
same,glycan array binding signal (z-score),[37],-0.291

# Exported with tabs: entries from further up
binder	measurement	setting	value
Flo1 (Saccharomyces cerevisiae), P32768 (protein) SGATEACLPAGQRKSGMNINFYQYSLKDSSTYSNAAYMAYGYASKTKLGSVGGQTDISIDYNIPCVSSSGTFPCPQEDSYGNWGCKGMGACSNSQGIAYWSTDLFGFYTTPTNVTLEMTGYFLPPQTGSYTFKFATVDDSAILSVGGATAFNCCAQQQPPITSTNFTIDGIKPWGGSLPPNIEGTVYMYAGYYYPMKVVYSNAVSWGTLPISVTLPDGTTVSDDFEGYVYSFDDDLSQSNCTVPDPSNY	glycan array binding signal (z-score)	[11]	0.999
same	glycan array binding signal (z-score)	[12]	0.11
same	glycan array binding signal (z-score)	[13]	0.46
same	glycan array binding signal (z-score)	[14]	0.018
same	glycan array binding signal (z-score)	[15]	0.589
same	glycan array binding signal (z-score)	[16]	0.775
same	glycan array binding signal (z-score)	[17]	-0.195
same	glycan array binding signal (z-score)	[18]	-0.083
same	glycan array binding signal (z-score)	[19]	-0.753
same	glycan array binding signal (z-score)	[20]	0.591
same	glycan array binding signal (z-score)	[21]	0.119
